{"sequences": {"note": "By UniProt entry, the sequences of proteins in these tests, tags left out. Residues count along the entry.", "UniProt P10415, residues 1-205": "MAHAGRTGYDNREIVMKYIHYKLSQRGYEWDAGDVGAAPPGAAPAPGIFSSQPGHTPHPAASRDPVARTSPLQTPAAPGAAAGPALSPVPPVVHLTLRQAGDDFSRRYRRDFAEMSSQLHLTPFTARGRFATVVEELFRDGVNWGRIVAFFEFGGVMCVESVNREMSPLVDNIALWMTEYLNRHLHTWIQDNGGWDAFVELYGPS"}, "source": "patent US6713280", "target": "GST-Bcl-2 protein (UniProt P10415)", "experiment": "fluorescence polarization competition with Flu-SEQ ID NO:30, FIG. 4", "note": "These are yes or no findings as the source states them, for the method shown. Some entries that bind do so weakly or less than the wild type."}
{"binder": "KNLWAAQRYGRELRRMSDEFEGSFKGL (CH3(CH2)8C(O)- (decanoyl) group on the N-terminus of the peptide)", "note": "[decyl-SEQ ID NO:56 (CH3(CH2)8COHN-…)]", "values": [{"measurement": "binding", "result": "binds"}]}
